Data as given in PubChem BioAssay AID1671195 (Yale University, 2021)
Here is an unselected part of about 22,000 reagents. In the full data, about 1,510 (6.9%) were called active. 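Active includes knockdowns raising or lowering LDL uptake; positive z-scores mean more uptake, negative mean less.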 The numbers tell different reagents against one gene apart. No sequences are given here.

Screen: 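Knockdowns that increase or decrease uptake of fluorescent LDL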 (primary screen)
Cell system: human Huh7 hepatoma cells
Knock-down reagent: siRNA pool against human genes, 18 nM
Duration: about 2 to 2.5 days of knockdown, then 8 h LDL uptake
Challenge: DiI-labelled LDL at 30 µg/ml for 8 h, in lipoprotein-deficient serum medium
Measurement: 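Fluorescent LDL signal imaged in cells, scaled to the plate median, robust z-score for each replicate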
Scale: robust z-score: higher = more LDL uptake after knockdown
Call rule: 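Active when two or more replicates show a robust z-score above 2 or below -2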

For GLT8D1 (GeneID 55830), the values are robust z-score, replicate 1 = 1.21; robust z-score, replicate 2 = 1.17; robust z-score, replicate 3 = 0.728; inactive.
With knock-down of PPP5C (GeneID 5536) the results were robust z-score, replicate 1 = 0.307; robust z-score, replicate 2 = 0.513; robust z-score, replicate 3 = 0.0454; inactive.
After knock-down of LOC390615 (retired record) (GeneID 390615), the screen gave robust z-score, replicate 1 = 0.512; robust z-score, replicate 2 = 0.172; robust z-score, replicate 3 = 0.498; inactive.
Against LOC440864 (retired record) (GeneID 440864) the deposit lists robust z-score, replicate 1 = -0.487; robust z-score, replicate 2 = 0.821; robust z-score, replicate 3 = 0.616; inactive.
Depletion of PRNP (GeneID 5621) gave: robust z-score, replicate 1 = -1.31; robust z-score, replicate 2 = 1.1; robust z-score, replicate 3 = -1.45; inactive.
For KRT73 (GeneID 319101) the deposit lists robust z-score, replicate 1 = -0.749; robust z-score, replicate 2 = -0.845; robust z-score, replicate 3 = -0.896; inactive.
Knock-down of DNM1P46 (GeneID 196968) gave: robust z-score, replicate 1 = 0.522; robust z-score, replicate 2 = 0.164; robust z-score, replicate 3 = -0.57; inactive.
Depletion of ADAM8 (GeneID 101) resulted in: robust z-score, replicate 1 = -0.226; robust z-score, replicate 2 = -0.95; robust z-score, replicate 3 = -0.132; inactive.
For TSHZ1 (GeneID 10194) the deposit lists robust z-score, replicate 1 = 0.628; robust z-score, replicate 2 = 0.747; robust z-score, replicate 3 = 0.199; inactive.
LOC400865 (retired record) (GeneID 400865) gave robust z-score, replicate 1 = -1.88; robust z-score, replicate 2 = -1.9; robust z-score, replicate 3 = -1.67; inactive.
IRF2 (GeneID 3660) showed robust z-score, replicate 1 = 0.336; robust z-score, replicate 2 = -0.0552; robust z-score, replicate 3 = 0.299; inactive.
Depletion of PGS1 (GeneID 9489) resulted in: robust z-score, replicate 1 = 0.273; robust z-score, replicate 2 = 0.615; robust z-score, replicate 3 = -0.109; inactive.
Knock-down of CRIPAK (retired record) (GeneID 285464) resulted in: robust z-score, replicate 1 = 0.147; robust z-score, replicate 2 = 0.0659; robust z-score, replicate 3 = 0.235; inactive.
With knock-down of MAMLD1 (GeneID 10046), the screen gave robust z-score, replicate 1 = -1.26; robust z-score, replicate 2 = 0.00951; robust z-score, replicate 3 = -0.42; inactive.
After knock-down of RTL9 (GeneID 57529), the record shows robust z-score, replicate 1 = -0.574; robust z-score, replicate 2 = 0.131; robust z-score, replicate 3 = 0.819; inactive.
Against LCT (GeneID 3938), the entry reads robust z-score, replicate 1 = 1.1; robust z-score, replicate 2 = 0.961; robust z-score, replicate 3 = 1.4; inactive.
LINC00336 (GeneID 401253) showed robust z-score, replicate 1 = 0.149; robust z-score, replicate 2 = -2.23; robust z-score, replicate 3 = -0.413; inactive.
For VPS53 (GeneID 55275), the entry reads robust z-score, replicate 1 = 1.34; robust z-score, replicate 2 = 1.47; robust z-score, replicate 3 = 1.17; inactive.
Against CASP1 (GeneID 834) the deposit lists robust z-score, replicate 1 = 2.62; robust z-score, replicate 2 = 4.4; robust z-score, replicate 3 = 3.65; active.

Called active, among the entries above:
CASP1 (GeneID 834) → robust z-score, replicate 1: 2.62; robust z-score, replicate 2: 4.4; robust z-score, replicate 3: 3.65; call: active

Further records follow.
With knock-down of HHLA2 (GeneID 11148), the record shows robust z-score, replicate 1 = 0.0859; robust z-score, replicate 2 = -0.714; robust z-score, replicate 3 = -0.871; inactive.
After knock-down of NET1 (GeneID 10276), the screen gave robust z-score, replicate 1 = -1.47; robust z-score, replicate 2 = -0.744; robust z-score, replicate 3 = 2.58; inactive.
CEP97 (GeneID 79598) gave robust z-score, replicate 1 = 1.24; robust z-score, replicate 2 = 1.28; robust z-score, replicate 3 = 1.5; inactive.
Depletion of HNRNPA1 (GeneID 3178) resulted in: robust z-score, replicate 1 = 0.291; robust z-score, replicate 2 = 0.123; robust z-score, replicate 3 = 0.266; inactive.
CCDC7 (GeneID 79741) #1 showed robust z-score, replicate 1 = 1.68; robust z-score, replicate 2 = 1.73; robust z-score, replicate 3 = 1.52; inactive.
CCDC7 (GeneID 79741) #2 showed robust z-score, replicate 1 = 0.25; robust z-score, replicate 2 = -0.646; robust z-score, replicate 3 = -0.0753; inactive.
Against PLEKHF2 (GeneID 79666) the deposit lists robust z-score, replicate 1 = -1.16; robust z-score, replicate 2 = -0.856; robust z-score, replicate 3 = -0.703; inactive.
For DERA (GeneID 51071), the values are robust z-score, replicate 1 = -2.14; robust z-score, replicate 2 = -1.25; robust z-score, replicate 3 = -2.26; active.
For LOC441653 (retired record) (GeneID 441653), the entry reads robust z-score, replicate 1 = -0.348; robust z-score, replicate 2 = -0.91; robust z-score, replicate 3 = -0.658; inactive.
ANKRD13C-DT (GeneID 11147) gave robust z-score, replicate 1 = 0.271; robust z-score, replicate 2 = -0.595; robust z-score, replicate 3 = -0.707; inactive.
Against KHDRBS1 (GeneID 10657), the values are robust z-score, replicate 1 = -0.147; robust z-score, replicate 2 = -0.718; robust z-score, replicate 3 = -0.0662; inactive.
